Data: the supplement of paper PMC10849652
This is one part of the list.

Sequences of proteins named here, by UniProt entry; tags and fusion partners are left off. A change or cut given only in a name is not applied to a line headed by its entry.
UniProt Q9BPX7: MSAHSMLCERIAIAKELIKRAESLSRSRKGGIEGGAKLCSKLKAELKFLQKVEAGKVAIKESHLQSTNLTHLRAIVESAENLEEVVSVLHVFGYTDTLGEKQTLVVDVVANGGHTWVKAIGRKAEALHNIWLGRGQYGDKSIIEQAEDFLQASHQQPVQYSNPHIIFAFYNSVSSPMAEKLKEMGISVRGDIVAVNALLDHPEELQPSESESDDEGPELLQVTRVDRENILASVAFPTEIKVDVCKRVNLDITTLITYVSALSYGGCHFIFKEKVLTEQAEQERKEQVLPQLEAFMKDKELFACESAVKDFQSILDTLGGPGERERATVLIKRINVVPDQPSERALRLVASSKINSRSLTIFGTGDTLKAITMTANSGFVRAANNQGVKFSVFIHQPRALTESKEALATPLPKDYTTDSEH
UniProt Q96NL8: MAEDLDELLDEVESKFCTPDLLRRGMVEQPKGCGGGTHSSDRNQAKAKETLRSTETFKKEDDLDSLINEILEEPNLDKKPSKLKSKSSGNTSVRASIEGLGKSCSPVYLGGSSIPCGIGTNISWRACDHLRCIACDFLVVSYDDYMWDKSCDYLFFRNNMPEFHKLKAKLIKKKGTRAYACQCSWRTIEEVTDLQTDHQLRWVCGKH
UniProt Q9Y297: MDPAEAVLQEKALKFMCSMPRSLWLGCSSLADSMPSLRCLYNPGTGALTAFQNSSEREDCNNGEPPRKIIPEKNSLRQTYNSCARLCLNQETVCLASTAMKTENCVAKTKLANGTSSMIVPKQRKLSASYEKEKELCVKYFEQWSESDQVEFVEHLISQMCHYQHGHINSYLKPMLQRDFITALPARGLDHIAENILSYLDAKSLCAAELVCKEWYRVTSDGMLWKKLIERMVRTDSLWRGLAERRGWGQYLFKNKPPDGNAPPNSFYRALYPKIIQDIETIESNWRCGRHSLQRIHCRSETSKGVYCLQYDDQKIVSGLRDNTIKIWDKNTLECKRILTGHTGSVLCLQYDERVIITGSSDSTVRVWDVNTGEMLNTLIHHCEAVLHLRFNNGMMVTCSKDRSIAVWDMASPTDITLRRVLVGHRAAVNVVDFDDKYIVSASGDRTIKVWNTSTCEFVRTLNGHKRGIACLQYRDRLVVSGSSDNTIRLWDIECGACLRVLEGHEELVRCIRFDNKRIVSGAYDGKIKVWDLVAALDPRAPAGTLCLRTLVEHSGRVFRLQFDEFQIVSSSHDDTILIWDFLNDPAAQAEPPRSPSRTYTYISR
UniProt Q9Y6J0: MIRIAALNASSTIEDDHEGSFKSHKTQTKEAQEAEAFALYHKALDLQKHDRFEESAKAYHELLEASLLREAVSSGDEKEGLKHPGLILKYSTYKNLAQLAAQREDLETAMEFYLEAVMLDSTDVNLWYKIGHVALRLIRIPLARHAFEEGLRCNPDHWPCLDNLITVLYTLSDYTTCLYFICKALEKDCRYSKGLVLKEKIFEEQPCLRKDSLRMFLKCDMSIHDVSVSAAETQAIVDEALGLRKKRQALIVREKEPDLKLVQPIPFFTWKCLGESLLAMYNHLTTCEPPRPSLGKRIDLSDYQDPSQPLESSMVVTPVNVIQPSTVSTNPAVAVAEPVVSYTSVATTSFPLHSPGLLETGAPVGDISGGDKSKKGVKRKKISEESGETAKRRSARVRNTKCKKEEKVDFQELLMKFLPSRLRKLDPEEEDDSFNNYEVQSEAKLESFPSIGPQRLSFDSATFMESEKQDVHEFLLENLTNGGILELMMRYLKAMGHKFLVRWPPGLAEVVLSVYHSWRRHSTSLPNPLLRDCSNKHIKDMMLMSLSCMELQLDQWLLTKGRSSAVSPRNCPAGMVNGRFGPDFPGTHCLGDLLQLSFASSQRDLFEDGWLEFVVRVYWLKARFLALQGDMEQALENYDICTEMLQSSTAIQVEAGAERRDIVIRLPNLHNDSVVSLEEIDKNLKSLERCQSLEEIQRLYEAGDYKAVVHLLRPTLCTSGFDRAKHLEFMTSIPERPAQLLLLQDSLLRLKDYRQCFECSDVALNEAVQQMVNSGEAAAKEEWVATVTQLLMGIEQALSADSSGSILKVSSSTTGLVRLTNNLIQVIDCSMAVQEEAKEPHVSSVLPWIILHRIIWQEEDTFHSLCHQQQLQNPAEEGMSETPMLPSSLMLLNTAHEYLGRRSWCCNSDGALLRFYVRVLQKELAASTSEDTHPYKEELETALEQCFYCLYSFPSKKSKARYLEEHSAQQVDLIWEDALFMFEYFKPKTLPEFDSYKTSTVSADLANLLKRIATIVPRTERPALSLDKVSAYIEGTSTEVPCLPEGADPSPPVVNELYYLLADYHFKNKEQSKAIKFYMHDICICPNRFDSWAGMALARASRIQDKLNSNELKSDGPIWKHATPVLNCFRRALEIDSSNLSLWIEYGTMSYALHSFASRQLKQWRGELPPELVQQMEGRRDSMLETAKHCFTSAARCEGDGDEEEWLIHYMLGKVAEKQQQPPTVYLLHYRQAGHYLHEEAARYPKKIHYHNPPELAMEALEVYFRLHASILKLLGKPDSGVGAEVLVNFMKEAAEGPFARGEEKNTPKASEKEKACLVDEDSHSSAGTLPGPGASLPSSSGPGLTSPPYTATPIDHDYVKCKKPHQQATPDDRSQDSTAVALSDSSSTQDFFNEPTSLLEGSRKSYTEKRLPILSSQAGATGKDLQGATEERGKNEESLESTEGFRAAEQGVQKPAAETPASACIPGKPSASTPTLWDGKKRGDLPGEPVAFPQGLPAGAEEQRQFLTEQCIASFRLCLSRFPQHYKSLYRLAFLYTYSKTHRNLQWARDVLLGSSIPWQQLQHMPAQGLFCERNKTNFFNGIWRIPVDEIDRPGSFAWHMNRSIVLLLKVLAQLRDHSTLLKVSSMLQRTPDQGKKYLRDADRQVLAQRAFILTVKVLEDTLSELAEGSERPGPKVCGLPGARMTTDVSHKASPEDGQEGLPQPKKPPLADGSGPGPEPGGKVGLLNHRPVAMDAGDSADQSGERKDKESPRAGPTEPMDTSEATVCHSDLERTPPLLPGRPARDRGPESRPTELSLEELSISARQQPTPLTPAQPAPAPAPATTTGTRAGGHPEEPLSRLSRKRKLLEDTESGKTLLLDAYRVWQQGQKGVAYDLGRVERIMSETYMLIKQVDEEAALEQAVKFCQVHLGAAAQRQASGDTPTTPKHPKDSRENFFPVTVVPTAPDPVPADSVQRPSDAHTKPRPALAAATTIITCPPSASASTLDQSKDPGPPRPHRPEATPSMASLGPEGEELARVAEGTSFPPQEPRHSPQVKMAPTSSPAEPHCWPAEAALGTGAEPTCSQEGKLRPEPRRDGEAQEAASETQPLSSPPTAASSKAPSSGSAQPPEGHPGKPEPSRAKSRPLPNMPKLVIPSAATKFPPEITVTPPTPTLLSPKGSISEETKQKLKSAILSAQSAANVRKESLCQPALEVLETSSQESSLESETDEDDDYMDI

Tests used:
Test in all cases: log2 fold change, soluble protein after heating vs DMSO (PISA); higher = thermal stabilisation; K562 lysate, 10 uM; active = over 0.2 and 3.5 SD of the protein, either way, in both replicates (recomputed)
ibrutinib = compound: C=CC(=O)N1CCC[C@@H](n2nc(-c3ccc(Oc4ccccc4)cc3)c3c(N)ncnc32)C1 [ibrutinib]
Outline: (§1)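 Quantification was by TMTpro 16plex LC-MS/MS with equalised channel sums, applied to the supernatant after 21,000xg for 90 min. Samples were crude K562 extract at 1 mg/mL protein in PBS pH 7.4 with 1 mM MgCl2, treated with 10 μM compound for 30 min, heated for 3 min across 48°C-58°C, pooled and brought to 0.5% NP-40 at 4°C. Values are log-two fold changes in thermal stability relative to solvent controls, from duplicates.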

[1] = compound: CC(=O)c1cnc2ccc(-c3cc(Cl)c(O)c(Cl)c3)nc2c1N[C@H]1CC[C@H](CN(C)C)CC1
Outline: as §1

ralimetinib = compound: CC(C)(C)Cn1c(N)nc2ccc(-c3[nH]c(C(C)(C)C)nc3-c3ccc(F)cc3)nc21 [ralimetinib]
Outline: as §1

[2] = compound: CC(C)(O)CC(=O)NCCn1ccc2ncnc(Nc3ccc(Oc4cccc(C(F)(F)F)c4)c(Cl)c3)c21
Outline: as §1

[3] = compound: CC(C)C1=C2N=C(C=C(N2N=C1)NCC3=CC=CC=C3)NCCCCCCN
Outline: as §1

[4] = compound: CC1=C(C2=C(C=C1)C(=O)C3=CC=CC=C3N2CCCN)C
Outline: as §1

[5] = compound: CC1=C(C=C(C=C1)NC(=O)C2=CC(=CC=C2)C(C)(C)C#N)NC3=CC4=C(C=C3)N=CN(C4=O)C
Outline: as §1

[6] = compound: CC1=C(C=C(C=C1)NC(=O)C2=CC(=CC=C2)N(C)C)NC(=O)C3=CC=C(C=C3)O
Outline: as §1

[7] = compound: CC1=CC=C(C=C1)SC2=C3C=C(SC3=CN=C2)C(=O)N
Outline: as §1

vemurafenib = compound: CCCS(=O)(=O)Nc1ccc(F)c(C(=O)c2c[nH]c3ncc(-c4ccc(Cl)cc4)cc23)c1F [vemurafenib]
Outline: as §1

[8] = compound: CCCS(=O)(=O)Nc1ccc(F)c(C(=O)c2c[nH]c3ncc(Cl)cc23)c1F
Outline: as §1

barasertib = compound: CCN(CCCOc1ccc2c(Nc3cc(CC(=O)Nc4cccc(F)c4)[nH]n3)ncnc2c1)CCOP(=O)(O)O [barasertib]
Outline: as §1

[9] = compound: CC[C@@H]1C(=O)N(C)c2cnc(Nc3ccc(C(=O)NC4CCN(C)CC4)cc3OC)nc2N1C1CCCC1
Outline: as §1

volasertib = compound: CC[C@@H]1C(=O)N(C)c2cnc(Nc3ccc(C(=O)N[C@H]4CC[C@H](N5CCN(CC6CC6)CC5)CC4)cc3OC)nc2N1C(C)C [volasertib]
Outline: as §1

[10] = compound: CCn1c(C(=O)N(C2CC2)C2CC2)cc2c3c(ncn3C)c(Nc3cc(C)n(C)n3)nc21
Outline: as §1

[11] = compound: CCn1cc(-c2ccnc3[nH]c(-c4cccc(CN(C)C)c4)cc23)c(-c2ccc(NC(=O)N(C)C)cc2)n1
Outline: as §1

[12] = compound: CN1CCC(CNc2ccc3ncc(-c4cccc(OC(F)(F)F)c4)n3n2)CC1
Outline: as §1

saracatinib = compound: CN1CCN(CCOc2cc(OC3CCOCC3)c3c(Nc4c(Cl)ccc5c4OCO5)ncnc3c2)CC1 [saracatinib]
Outline: as §1

sotrastaurin = compound: CN1CCN(c2nc(C3=C(c4c[nH]c5ccccc45)C(=O)NC3=O)c3ccccc3n2)CC1 [sotrastaurin]
Outline: as §1

[13] = compound: CC1=C(C(CC(=O)N1)C2=CC=C(C=C2)C(F)(F)F)C(=O)NC3=C(C=C4C(=C3)C=NN4)F
Outline: as §1

Measured: log2 fold change

C7orf25 isoform 2 (UniProt Q9BPX7)
inactive: ibrutinib 0.058 | [1] -0.1 | ralimetinib 0.064 | [2] -0.008 | [3] -0.088 | [4] -0.004 | [5] 0.01 | [6] -0.005 | [7] -0.045 | vemurafenib -0.309 | [8] 0.087 | barasertib 0.057 | [9] 0.049 | volasertib 0.005 | [10] -0.051 | [11] 0.154 | [12] -0.097 | saracatinib 0.157 | sotrastaurin -0.052

C8orf37 (UniProt Q96NL8)
inactive: ibrutinib 0.214 | [1] -0.037 | ralimetinib -0.004 | [2] 0.031 | [3] -0.038 | [4] -0.006 | [5] 0.089 | [6] 0.031 | [7] -0.089 | vemurafenib 0.081 | [8] -0.061 | barasertib -0.062 | [9] 0.058 | volasertib -0.043 | [10] -0.075 | [11] 0.225 | [12] 0.166 | saracatinib -0.06 | sotrastaurin 0.072

BTRC (UniProt Q9Y297)
inactive: ibrutinib 0.026 | [1] 0.012 | ralimetinib 0.068 | [2] -0.033 | [3] 0.045 | [13] 0.015 | [6] 0.075 | [7] -0.002 | vemurafenib -0.002 | [8] 0.023 | barasertib 0.052 | [9] 0.076 | volasertib -0.041 | [10] -0.088 | [11] 0.073 | [12] 0.067

CABIN1 (UniProt Q9Y6J0)
inactive: ibrutinib -0.068 | [1] -0.029 | ralimetinib -0.037 | [2] 0 | [3] -0.025 | [13] -0.148 | [4] -0.014 | [6] 0.085 | [7] 0.074 | vemurafenib -0.086 | [8] -0.042 | barasertib 0.277 | [9] 0.077 | volasertib -0.089 | [10] 0.031 | [11] -0.113 | [12] 0.066 | saracatinib 0.013

CAPNS1 (UniProt U3KPR7)
inactive: ibrutinib 0.034 | [1] -0.007 | [13] 0.155 | [7] 0.099 | [8] -0.125 | barasertib 0.424 | volasertib -0.01
